Data source: PubChem BioAssay AID1671195 (Yale University, 2021)

Screen: 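Genes whose knockdown alters LDL uptake in liver cancer cells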 (primary screen)
Cells: human Huh7 hepatoma cells
Knock-down reagent: siRNA pool against human genes, 18 nM
Timing: about 2 to 2.5 days of knockdown, then 8 h LDL uptake
Treatment: DiI-labelled LDL at 30 µg/ml for 8 h, in lipoprotein-deficient serum medium
Measurement: 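Fluorescent LDL signal imaged in cells, scaled to the plate median, robust z-score for each replicate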
Scale: robust z-score: higher = more LDL uptake after knockdown
Hit rule: 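Active when two or more replicates show a robust z-score above 2 or below -2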
Here is an unselected part of about 22,000 deposited reagents. About 1,510 of all reagents (6.9%) were called active. 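Active includes knockdowns raising or lowering LDL uptake; positive z-scores mean more uptake, negative mean less.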 No sequences are given here.

AP1G2: robust z-score, replicate 1 = -0.629; robust z-score, replicate 2 = -0.89; robust z-score, replicate 3 = -0.438; call = inactive
SLC16A3: robust z-score, replicate 1 = -1.39; robust z-score, replicate 2 = -1.11; robust z-score, replicate 3 = -0.966; call = inactive
OOSP2: robust z-score, replicate 1 = 0.213; robust z-score, replicate 2 = 0.14; robust z-score, replicate 3 = 0.2; call = inactive
MEFV: robust z-score, replicate 1 = 0.381; robust z-score, replicate 2 = 1.23; robust z-score, replicate 3 = 0.537; call = inactive
AGPAT5: robust z-score, replicate 1 = -0.0144; robust z-score, replicate 2 = 0.0784; robust z-score, replicate 3 = -0.566; call = inactive
LOC388924 (retired record): robust z-score, replicate 1 = -0.263; robust z-score, replicate 2 = -0.269; robust z-score, replicate 3 = -0.222; call = inactive
SP4: robust z-score, replicate 1 = -0.112; robust z-score, replicate 2 = 0.195; robust z-score, replicate 3 = 0.0825; call = inactive
MAP3K8: robust z-score, replicate 1 = -0.733; robust z-score, replicate 2 = -0.837; robust z-score, replicate 3 = -0.3; call = inactive
AQP4: robust z-score, replicate 1 = 0.404; robust z-score, replicate 2 = 0.219; robust z-score, replicate 3 = -0.376; call = inactive
BRK1: robust z-score, replicate 1 = 0.871; robust z-score, replicate 2 = 0.471; robust z-score, replicate 3 = 3.99; call = inactive
ARHGEF10L: robust z-score, replicate 1 = 2.28; robust z-score, replicate 2 = 1.21; robust z-score, replicate 3 = 4.28; call = active
CCDC187: robust z-score, replicate 1 = 0.615; robust z-score, replicate 2 = 0.96; robust z-score, replicate 3 = 0.999; call = inactive
LOC440974 (retired record): robust z-score, replicate 1 = -0.253; robust z-score, replicate 2 = -0.371; robust z-score, replicate 3 = -0.49; call = inactive
LOC442392 (retired record): robust z-score, replicate 1 = -0.626; robust z-score, replicate 2 = -0.484; robust z-score, replicate 3 = -0.543; call = inactive
HPSE: robust z-score, replicate 1 = -0.0621; robust z-score, replicate 2 = -0.748; robust z-score, replicate 3 = -0.134; call = inactive
SERPINB6: robust z-score, replicate 1 = -0.25; robust z-score, replicate 2 = -1.06; robust z-score, replicate 3 = -0.503; call = inactive
KCNJ16: robust z-score, replicate 1 = -0.618; robust z-score, replicate 2 = -0.254; robust z-score, replicate 3 = -0.403; call = inactive
LOC389365 (retired record): robust z-score, replicate 1 = -0.737; robust z-score, replicate 2 = -0.755; robust z-score, replicate 3 = -0.301; call = inactive
FAM24B: robust z-score, replicate 1 = -0.363; robust z-score, replicate 2 = -0.673; robust z-score, replicate 3 = -0.675; call = inactive
POLD2: robust z-score, replicate 1 = 0.283; robust z-score, replicate 2 = 0.158; robust z-score, replicate 3 = 0.42; call = inactive
LOC441610 (retired record): robust z-score, replicate 1 = -0.361; robust z-score, replicate 2 = 0.0312; robust z-score, replicate 3 = 0.099; call = inactive
TRIM53CP: robust z-score, replicate 1 = 0.393; robust z-score, replicate 2 = -0.193; robust z-score, replicate 3 = -0.0784; call = inactive
LOC388638 (retired record): robust z-score, replicate 1 = -1.05; robust z-score, replicate 2 = -1.19; robust z-score, replicate 3 = -1.51; call = inactive
OR4K15: robust z-score, replicate 1 = -0.434; robust z-score, replicate 2 = 0.223; robust z-score, replicate 3 = -0.0539; call = inactive
